Test results as given in PubChem BioAssay AID330 (DTP/NCI, 2004).
The list shows only some results of the screen, not a fair sample: it is rich in T/C values a quarter to a half above the control, in often repeated tests (any T/C) and in doses without a T/C. Other doses and runs of a compound stand elsewhere. T/C: endpoint of the treated group in % of that of the vehicle group. Some entries give survivors of the animals treated and no T/C: the source holds a T/C of zero for them, seemingly a mark for toxic or unscored doses. Some survivor counts are full or nearly so, which does not show that the dose was tolerated: the source hardly ever lists a survival T/C far under the control, and the zero likely stands for such cases as well. Counts of survivors are from the toxicity check (mostly the fifth day) where no day follows; animals may have died later. Schedule codes are those of the source, taken here to give the interval after Q, in days (D) or hours (H), and the number of doses after X. Some doses were run more than once; the values are given in rising order. For survival time, this PubChem deposit counts one and a half times the control or more as active, and values a quarter to a half above the control carry no call in these data; other NCI protocols may use other cut-offs.

System: P388 leukemia ip, CD2F1 mice, survival T/C
Test: NCI In Vivo Anticancer Drug Screen. Data for tumor model P388 Leukemia (intraperitoneal) in CD2F1 (CDF1) mice
Details: T/C endpoint: median survival time, higher T/C = longer survival
[1] = dose: 200.0 mg/kg/injection, schedule: Q01DX005 (ip), vehicle: Klucel (hydroxypropylcellulose) (HPC)
[2] = dose: 200.0 mg/kg/injection, schedule: Q01DX001 (ip), vehicle: saline
[3] = dose: 400.0 mg/kg/injection, schedule: Q01DX001 (ip), vehicle: saline
[4] = dose: 60.0 mg/kg/injection, schedule: Q01DX005 (ip), vehicle: saline with Tween-80
[5] = dose: 120.0 mg/kg/injection, schedule: Q01DX005 (ip), vehicle: saline with Tween-80
[6] = dose: 200.0 mg/kg/injection, schedule: Q01DX005 (ip), vehicle: saline with Tween-80
[7] = dose: 400.0 mg/kg/injection, schedule: Q04DX003 (ip), vehicle: saline with Tween-80
[8] = dose: 100.0 mg/kg/injection, schedule: Q01DX009 (ip), vehicle: saline
[9] = dose: 200.0 mg/kg/injection, schedule: Q01DX009 (ip), vehicle: saline
[10] = dose: 240.0 mg/kg/injection, schedule: Q01DX005 (ip), vehicle: saline with Tween-80
[11] = dose: 200.0 mg/kg/injection, schedule: Q01DX005 (ip), vehicle: saline
[12] = dose: 200.0 mg/kg/injection, schedule: Q01DX001 (ip), vehicle: Klucel (hydroxypropylcellulose) (HPC)
[13] = dose: 400.0 mg/kg/injection, schedule: Q01DX001 (ip), vehicle: Klucel (hydroxypropylcellulose) (HPC)
[14] = dose: 100.0 mg/kg/injection, schedule: Q01DX005 (ip), vehicle: saline with Tween-80

CN=C(NC)c1ccc(NC(=O)Nc2ccc(C)c(NC(=O)Nc3ccc(C(=NC)NC)cc3)c2)cc1
survivor count (dose: 12.5 mg/kg/injection, schedule: Q01DX005 (ip), vehicle: suspension in saline): 3 of 6 | survivor count (dose: 25.0 mg/kg/injection, schedule: Q01DX005 (ip), vehicle: suspension in saline): 0 of 6 | survivor count (dose: 50.0 mg/kg/injection, schedule: Q01DX005 (ip), vehicle: suspension in saline): 0 of 6 | survivor count (dose: 100.0 mg/kg/injection, schedule: Q01DX005 (ip), vehicle: suspension in saline): 0 of 6 | survivor count (dose: 200.0 mg/kg/injection, schedule: Q01DX005 (ip), vehicle: suspension in saline): 0 of 6

CN(C)CCCNC(=S)C(=S)NCCCN(C)C
survivor count [1]: 6 of 6

C[C@H]1C(=O)CCC2[C@]3(C)CCC4(CO)[C@@H]5CC(C)(C)C(=O)C[C@]5(C)CC[C@]4(C)C3CC[C@@]21C (stereo not given in full)
survivor count (dose: 62.0 mg/kg/injection, schedule: Q01DX005 (ip), vehicle: Klucel (hydroxypropylcellulose) (HPC)): 6 of 6

COC12CC(=O)C(C(C)=O)=C(O)C1(C)c1c(OC(C)=O)c(C)c(O)c(C(C)=O)c1O2 (stereo not given)
survivor count (dose: 100.0 mg/kg/injection, schedule: Q01DX009 (ip), vehicle: gum acacia): 0 of 6 and 6 of 6 | survivor count (dose: 200.0 mg/kg/injection, schedule: Q01DX009 (ip), vehicle: gum acacia): 0 of 6

COC(=O)c1ccc(C(=O)OC)c2nc3cc([N+](=O)[O-])ccc3nc12
survivor count (dose: 240.0 mg/kg/injection, schedule: Q01DX005 (ip), vehicle: suspension in saline): 3 of 6

NC(N)=N/N=C1\C/C(=N\N=C(N)N)c2cc3ccccc3cc21
survivor count (dose: 200.0 mg/kg/injection, schedule: Q01DX001 (ip), vehicle: saline with Tween-80): 2 of 6 | survivor count [2]: 0 of 6 | survivor count [3]: 0 of 6

Cc1ccc(S(=O)(=O)C(CCS(C)(=O)=O)C(=O)c2ccccc2)cc1 (stereo not given)
survivor count [4]: 6 of 6 | survivor count [5]: 6 of 6

CC12CCC3C(C1)C(C(=O)O2)C(=O)OC3(C)C (stereo not given)
survivor count (dose: 400.0 mg/kg/injection, schedule: Q01DX009 (ip), vehicle: Klucel (hydroxypropylcellulose) (HPC)): 0 of 6

CC12CC3CC(C1)CC(Br)(C3)C2
T/C (dose: 100.0 mg/kg/injection, schedule: Q01DX009 (ip), vehicle: Klucel (hydroxypropylcellulose) (HPC)): 128 % of control | T/C (dose: 200.0 mg/kg/injection, schedule: Q01DX009 (ip), vehicle: Klucel (hydroxypropylcellulose) (HPC)): 128 % of control

O=C(/C=C/c1ccc([N+](=O)[O-])cc1)NN=C(c1ccccc1)c1ccccc1
T/C (dose: 200.0 mg/kg/injection, schedule: Q01DX009 (ip), vehicle: saline with Tween-80): 126 % of control

O=C(O)[C@@H](NC(=O)C(Cl)(Cl)Cl)[C@@H]1CC(Br)=NO1
T/C (dose: 30.0 mg/kg/injection, schedule: Q01DX005 (ip), vehicle: distilled water + Tween-80): 127 and 139 % of control | T/C (dose: 60.0 mg/kg/injection, schedule: Q01DX005 (ip), vehicle: distilled water + Tween-80): 131 % of control | T/C (dose: 120.0 mg/kg/injection, schedule: Q01DX005 (ip), vehicle: distilled water + Tween-80): 140 % of control

CC(C)C(OCc1ccccc1)C(=O)O (stereo not given)
survivor count (dose: 400.0 mg/kg/injection, schedule: Q01DX009 (ip), vehicle: alcohol): 3 of 6

CCOC1=NC(C)C(C)N1 (stereo not given)
survivor count [2]: 0 of 6 | survivor count [3]: 0 of 6

C=C1C(=O)OC2C(OC(C)=O)C(C(=O)OC)CC(O)C/C(CO)=C\C(OC(=O)/C(C)=C/C)C12 (stereo not given)
survivor count (dose: 32.0 mg/kg/injection, schedule: Q01DX009 (ip), vehicle: Klucel (hydroxypropylcellulose) (HPC)): 2 of 6

CC(=O)NS(=O)(=O)c1ccc(N=Nc2c(C)nn(C(=O)c3cccnc3)c2-c2ccccc2)cc1
survivor count [6]: 6 of 6

Cc1cc(=O)oc2c(C)c3oc4c(c3cc12)CN(C)CC4
survivor count [1]: 6 of 6

COc1ccc(C2CCc3cc4c(cc3C2=O)OCO4)cc1OC (stereo not given)
survivor count (dose: 100.0 mg/kg/injection, schedule: Q04DX003 (ip), vehicle: saline with Tween-80): 6 of 6 | survivor count [7]: 6 of 6

CCCCCCCCCCC[N+]1([O-])CCOCC1
survivor count [8]: 5 of 6 | survivor count [9]: 0 of 6

Nc1nc(N)c2cc(S(=O)(=O)c3cccc(C(F)(F)F)c3)ccc2n1
T/C (dose: 400.0 mg/kg/injection, schedule: Q01DX009 (ip), vehicle: saline with Tween-80): 131 % of control

CC1=NCC[N-]CC[N-]CCN=C(C)C2CCCC1[N-]2.[Mn+3]
survivor count [4]: 0 of 6 | survivor count [5]: 0 of 6 | survivor count [10]: 0 of 6

CCN(CC)Cc1cc(C(CC(=O)c2ccccc2)S(=O)(=O)c2ccc(C)cc2)ccc1O (stereo not given)
survivor count (dose: 50.0 mg/kg/injection, schedule: Q01DX009 (ip), vehicle: saline with Tween-80): 5 of 6 | survivor count [8]: 0 of 6 | survivor count [9]: 0 of 6

CCOC(=O)c1ccc(NC(=O)Nc2ccccc2OC)cc1
survivor count (dose: 30.0 mg/kg/injection, schedule: Q01DX005 (ip), vehicle: Klucel (hydroxypropylcellulose) (HPC)): 5 of 6 | survivor count (dose: 60.0 mg/kg/injection, schedule: Q01DX005 (ip), vehicle: Klucel (hydroxypropylcellulose) (HPC)): 6 of 6 | survivor count (dose: 120.0 mg/kg/injection, schedule: Q01DX005 (ip), vehicle: Klucel (hydroxypropylcellulose) (HPC)): 6 of 6

Cc1cc(C)c(COCc2cc(C)c(C)cc2C)cc1C
survivor count (dose: 50.0 mg/kg/injection, schedule: Q01DX009 (ip), vehicle: water): 6 of 6

COc1ccc(/C=C2\N=C(c3ccccc3)OC2=O)c(OCc2ccccc2)c1
survivor count (dose: 50.0 mg/kg/injection, schedule: Q01DX009 (ip), vehicle: other): 6 of 6

CN(C)C1(c2ccccc2)N=NN=S1C (stereo not given)
survivor count [7]: 0 of 6

CC1CCN(C)CC1
survivor count [11]: 0 of 6

CON=C1C(C)(C)C(=NOC)C1(C)C
survivor count (dose: 50.0 mg/kg/injection, schedule: Q01DX005 (ip), vehicle: Klucel (hydroxypropylcellulose) (HPC)): 1 of 6 | survivor count (dose: 100.0 mg/kg/injection, schedule: Q01DX005 (ip), vehicle: Klucel (hydroxypropylcellulose) (HPC)): 3 of 6 | survivor count [1]: 0 of 6

CN(/N=C(C#N)/C(N)=N/N)c1ccccc1
survivor count (dose: 400.0 mg/kg/injection, schedule: Q04DX002 (ip), vehicle: saline with Tween-80): 1 of 6

N#C[S][Hg][c]1ccccc1
survivor count [10]: 0 of 6

Cc1[nH]c2cc(Br)ccc2c1/C=N/NC(N)=S
survivor count [12]: 3 of 6 | survivor count [13]: 1 of 6

COc1ccc(OC)c2c(Cl)c(C)cnc12
survivor count (dose: 100.0 mg/kg/injection, schedule: Q01DX001 (ip), vehicle: Klucel (hydroxypropylcellulose) (HPC)): 0 of 4 | survivor count [12]: 0 of 5 | survivor count [13]: 0 of 5

O=C(Nc1ccccc1)c1csc(-c2csc(CCNC(=O)C(F)(F)F)n2)n1
survivor count (dose: 50.0 mg/kg/injection, schedule: Q01DX009 (ip), vehicle: distilled water + Tween-80): 6 of 6

CCC(C)NCC/C(=C\[Si](C)(C)C)c1ccccc1 (stereo not given)
survivor count (dose: 400.0 mg/kg/injection, schedule: Q01DX001 (ip), vehicle: saline with Tween-80): 3 of 6

CCN(CC)CCCSCCCNc1cc(OC)cc2cccnc12
survivor count (dose: 100.0 mg/kg/injection, schedule: Q01DX005 (ip), vehicle: saline): 1 of 5 | survivor count [11]: 0 of 5

CC(C)(C)[Si](OC(=O)CCCc1ccc(N(CCCl)CCCl)cc1)(c1ccccc1)c1ccccc1
survivor count [14]: 5 of 5 | survivor count [6]: 0 of 5

S=C(NCc1ccccc1)NNc1nnc(-c2ccccc2)c(-c2ccccc2)n1
survivor count (dose: 50.0 mg/kg/injection, schedule: Q01DX005 (ip), vehicle: saline with Tween-80): 6 of 6 | survivor count [14]: 5 of 6 | survivor count [6]: 6 of 6
